The whole screen tested about 580,000 compounds, of which about 6,100 (1.1%) were called active. Inconclusive results, whose numbers are uncertain, are shown with a selection of clear calls. The call rests on the fitted dose curve; in most records, active means well fitted inhibition curve with a large enough effect; inconclusive means small, poorly fitted or top-dose-only effect, or another doubt; inactive means no such curve, though single readings can be large or run the other way. Where the call is inconclusive, the potency comes from a doubtful curve fit.
What follows are compounds tested against Polyunsaturated fatty acid lipoxygenase ALOX12 (Homo sapiens) (UniProt P18054) (assay: Primary qHTS assay for inhibitors of human arachidonate 12S-lipoxygenase (ALOX12): Round 2). Conditions: purified 12hLO, xylenol orange hydroperoxide absorbance; activity change, negative = inhibition: at 108 µM (top of the series).
Method in brief: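 Hydroperoxide product was detected by ferrous iron/xylenol orange as the 573 to 405 nm absorbance ratio. Arachidonic acid at 40 uM (final) was turned over for 30 min at room temperature by 150 nM human 12hLO, pH 7.0 Hepes buffer, after 15 min compound preincubation.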
On the % scale 0 is the no-effect control and ±100 the full control effect; potency means the concentration at half of the fitted maximal effect.

Chains of the proteins cited; added tags and fusions are not shown. Lines headed by an entry give the natural chain unless they say otherwise; changes in a name come on top.
UniProt P18054: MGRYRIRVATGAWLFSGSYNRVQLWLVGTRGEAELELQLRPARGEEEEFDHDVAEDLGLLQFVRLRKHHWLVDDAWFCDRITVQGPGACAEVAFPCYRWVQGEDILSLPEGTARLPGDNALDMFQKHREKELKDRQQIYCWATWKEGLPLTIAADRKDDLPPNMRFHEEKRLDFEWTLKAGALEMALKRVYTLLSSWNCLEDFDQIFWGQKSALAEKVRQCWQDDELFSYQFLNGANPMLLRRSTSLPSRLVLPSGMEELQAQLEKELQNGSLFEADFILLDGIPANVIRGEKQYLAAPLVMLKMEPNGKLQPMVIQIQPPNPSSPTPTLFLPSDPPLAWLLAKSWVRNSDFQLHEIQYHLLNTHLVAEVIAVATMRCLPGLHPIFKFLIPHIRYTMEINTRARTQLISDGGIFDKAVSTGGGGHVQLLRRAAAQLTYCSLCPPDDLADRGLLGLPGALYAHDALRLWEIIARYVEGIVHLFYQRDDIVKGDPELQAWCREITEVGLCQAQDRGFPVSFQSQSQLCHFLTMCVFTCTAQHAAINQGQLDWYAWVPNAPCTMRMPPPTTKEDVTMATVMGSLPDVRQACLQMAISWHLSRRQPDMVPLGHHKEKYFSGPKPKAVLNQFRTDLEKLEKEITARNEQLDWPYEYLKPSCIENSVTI

Q: `CC1CN1c1cc2c(c3c1ccn3C)C1CCC2C1` (configuration not stated) was tested. Which Potency did it give?
A: Its Potency is inconclusive: 89.1 µM [inhibitor, partial curve, poor fit].

Q: `O=C1C(Br)C2CCC1C2C(=O)O` (configuration not stated) was tested. Which Potency did it give?
A: Its Potency is inconclusive: 44.7 µM [inhibitor, partial curve, poor fit].

Q: Which Potency does the source give for `O=C(c1ccc2c(c1)N(Cc1ccc(F)cc1Cl)C(=O)c1ccccc1S2)N1CCC2(CC1)OCCO2` here?
A: The Potency was inconclusive: 50.1 µM [inhibitor, partial curve, poor fit].

Q: Which Potency does the source give for `O=C(O)C(=O)N1C[C@@H]2C[C@H](C1)c1ccc(NS(=O)(=O)c3ccccc3)c(=O)n1C2` here?
A: Its Potency is inconclusive: 5.01 µM [inhibitor, full curve, poor fit].

Q: For `CCOc1cc(/C=C2\C(=O)NC(=O)N(CCc3ccc(F)cc3)C2=O)ccc1O`, which Potency is on record?
A: Its Potency is inconclusive: 50.1 µM [inhibitor, partial curve, poor fit].

Q: With `COc1cc2c(cc1O)C[C@H]1NCCc3cc4c(c-2c31)OCO4` as the compound, how does the Potency read?
A: Its Potency is inconclusive: 50.1 µM [inhibitor, single point].

Q: Which Potency does the source give for `CSc1ncc(/C=C2/C(=O)NC(=O)N(C)C2=O)cn1` here?
A: The Potency was inconclusive: 31.6 µM [inhibitor, single point].

Q: With `CN1c2ccccc2Oc2ccccc21` as the compound, how does the Potency read?
A: Its Potency is inconclusive: 79.4 µM [inhibitor, partial curve, poor fit].

Q: With `Cn1cccc1-c1cccnc1` as the compound, how does the Potency read?
A: Its Potency is inconclusive: 100 µM [inhibitor, single point].

Q: How did the Potency turn out when `CCCCCCC(C)(C)c1ccc([C@@H]2C[C@H](O)CC[C@@H]2CCCO)c(O)c1` was run?
A: Its Potency is inconclusive: 44.7 µM [inhibitor, partial curve, poor fit].

Q: Which activity change, negative = inhibition does the source give for `CC(=O)NCCCC(=O)N1C2CCC1CN(Cc1cccnc1)C2` here?
A: The activity change, negative = inhibition was inactive: 2.53% [at 6.33 µM].

Q: How did the Potency turn out when `O=C(CC1CCCC1)N1[C@H]2CC[C@@H]1c1cnc(-c3ccc(F)cc3)nc1C2` was run?
A: The Potency was “inactive”.

Q: For `O=P1(c2ccccc2)Nc2ccccc2N1c1ccccc1` (configuration not stated), which Potency is on record?
A: The Potency was inconclusive: 44.7 µM [inhibitor, partial curve, poor fit].

Q: Which Potency does the source give for `Cc1cc(/C=C2\C(=O)NC(=S)N(C)C2=O)c(C)n1C1CCCCC1` here?
A: The Potency was “inactive”.

Q: Which Potency does the source give for `COc1cc2c(cc1OCc1ccncc1)NC(=O)C21CCN(C(C)=O)CC1` here?
A: The Potency was inconclusive: 112 µM [inhibitor, partial curve, poor fit].

Q: For `COC(=O)C1=C(c2c(C)noc2C)C[C@@H]2CC[C@H]1N2C(=O)N1CCC(O)(c2ccc(Cl)cc2)CC1`, which Potency is on record?
A: Its Potency is “inactive”.

Q: How did the Potency turn out when `c1cncc(CNCCc2ccc3c(c2)OCO3)c1` was run?
A: Its Potency is inconclusive: 44.7 µM [inhibitor, partial curve, poor fit].

Q: `OC[C@H]1C[C@@H](NC2CCOCC2)[C@H](O)[C@@H]1O` was tested. Which Potency did it give?
A: Its Potency is “inactive”.

Q: With `Cc1c(N=Cc2c(O)n(Cc3ccc(F)cc3)c(=O)[nH]c2=O)c(=O)n(-c2ccccc2)n1C` as the compound, how does the Potency read?
A: Its Potency is “inactive”.

Q: For `Cc1ccc(N)c(N)c1`, which Potency is on record?
A: Its Potency is inconclusive: 100 µM [inhibitor, single point].

Q: `CC(C)NC(=O)OC[C@H]1C[C@@H]2CCN1C[C@@H]2c1cc(C2CCCC2)nc(-c2ccncc2)n1` was tested. Which Potency did it give?
A: The Potency was active: 28.2 µM.

Q: With `Cc1nc(-c2cccs2)cc([C@H]2CN3CC[C@H]2C[C@@H]3CNC(=O)c2ccc3c(c2)OCO3)n1` as the compound, how does the Potency read?
A: Its Potency is “inactive”.

Q: `Cc1ccc(C(=O)N2CCC3(CC2)c2nccn2-c2ccccc2CN3C)c(C)c1` was tested. Which Potency did it give?
A: The Potency was “inactive”.

Q: `O=C(NCC1=C(c2ccc3ccccc3c2)C[C@@H]2CC[C@H]1N2Cc1ccco1)c1cccs1` was tested. Which Potency did it give?
A: Its Potency is inconclusive: 50.1 µM [inhibitor, partial curve, poor fit].

Q: `O=C(O)C1=NOC2CN(Cc3cscn3)CC12` (configuration not stated) was tested. Which Potency did it give?
A: The Potency was inconclusive: 8.91 µM [inhibitor, full curve, poor fit].

Q: Which Potency does the source give for `CCC(Sc1ccccc1)C(=O)OC1CC2CCC(C1)N2C` (configuration not stated) here?
A: Its Potency is inconclusive: 0.708 µM [inhibitor, full curve, poor fit].

Q: For `O=C1CC(=O)N(c2ccccc2)C(=O)N1`, which Potency is on record?
A: The Potency was inconclusive: 0.316 µM [inhibitor, full curve, poor fit].

Q: `CC(C)(C)CN1CC2ON=C(C(=O)O)C2C1` (configuration not stated) was tested. Which Potency did it give?
A: The Potency was inconclusive: 50.1 µM [inhibitor, partial curve, poor fit].

Q: For `NNCc1cccc(O)c1`, which Potency is on record?
A: The Potency was inconclusive: 20 µM [inhibitor, partial curve, poor fit].

Q: How did the Potency turn out when `CNCc1cn(C[C@H]2C[C@@H]3CCN2C[C@@H]3C(=O)NC2CCCCC2)nn1` was run?
A: The Potency was “inactive”.

Q: Which Potency does the source give for `CN(C(=O)Cc1ccc(Cl)c(Cl)c1)[C@@H](CN1CCCC1)c1cccc(OCC(=O)O)c1` here?
A: Its Potency is inconclusive: 35.5 µM [inhibitor, partial curve, poor fit].

Q: For `CCCCCn1c(=O)c(C(=O)NCc2ccc(Cl)cc2)c(O)c2ccccc21`, which Potency is on record?
A: Its Potency is “inactive”.

Q: How did the Potency turn out when `Cc1cc(/C=C2/C(=O)NC(=O)N(Cc3ccco3)C2=O)c(C)n1-c1ccc(C(=O)O)cc1` was run?
A: Its Potency is inconclusive: 44.7 µM [inhibitor, partial curve, poor fit].

Q: Which Potency does the source give for `CCOc1ccc(CNCCc2ccc3c(c2)OCO3)cc1` here?
A: Its Potency is inconclusive: 35.5 µM [inhibitor, partial curve].

Q: `O=[N+]([O-])c1ccc(N2CCCC(C(F)(F)F)C2)c2ccncc12` (configuration not stated) was tested. Which Potency did it give?
A: Its Potency is inconclusive: 7.08 µM [inhibitor, full curve, poor fit].

Q: With `Cc1cc(/C=C2\C(=O)NC(=O)N(Cc3ccccc3)C2=O)c(C)n1-c1ccc(Cl)c(C(=O)O)c1` as the compound, how does the Potency read?
A: The Potency was inconclusive: 5.62 µM [inhibitor, full curve, poor fit].

Q: For `O=c1[nH]c(=O)n(Cc2ccccc2Cl)c(O)c1/C=C1/C=CC=N1`, which Potency is on record?
A: Its Potency is inconclusive: 44.7 µM [inhibitor, partial curve].

Q: How did the Potency turn out when `COc1cc2c(cc1OCC1CC1)NC(=O)C21CCN(C(=O)c2cccc(C#N)c2)CC1` was run?
A: The Potency was “inactive”.

Q: With `C=C[C@H]1CN2CC[C@H]1C[C@@H]2CNC(=O)C(CC)CC` as the compound, how does the Potency read?
A: Its Potency is “inactive”.

Q: With `COc1cc2c(cc1OCC1CC1)NC(=O)C21CCN(Cc2cccc(O)c2)CC1` as the compound, how does the Potency read?
A: The Potency was “inactive”.

Q: `COc1nn(CSP(=S)(OC)OC)c(=O)s1` was tested. Which Potency did it give?
A: Its Potency is inconclusive: 23.3 µM [inhibitor, partial curve].

Q: `COCCN(C(=O)COC(=O)Cc1ccccc1)c1c(N)n(Cc2ccccc2)c(=O)[nH]c1=O` was tested. Which Potency did it give?
A: The Potency was inconclusive: 50.1 µM [inhibitor, partial curve, poor fit].
